For three sequences, binding signal (log2 enrichment (interaction score)) results are on record in publication PMC8384837.

What all share (settings): yeast three-hybrid, YBZ-1, SC-Leu-His + 0.5 mM 3-AT, 4 days
In test [1] the target is T1, PUM1 PUF domain R2-GWW N899G + Y900W + Q903W (Homo sapiens) (UniProt Q14671).
T1 sequence: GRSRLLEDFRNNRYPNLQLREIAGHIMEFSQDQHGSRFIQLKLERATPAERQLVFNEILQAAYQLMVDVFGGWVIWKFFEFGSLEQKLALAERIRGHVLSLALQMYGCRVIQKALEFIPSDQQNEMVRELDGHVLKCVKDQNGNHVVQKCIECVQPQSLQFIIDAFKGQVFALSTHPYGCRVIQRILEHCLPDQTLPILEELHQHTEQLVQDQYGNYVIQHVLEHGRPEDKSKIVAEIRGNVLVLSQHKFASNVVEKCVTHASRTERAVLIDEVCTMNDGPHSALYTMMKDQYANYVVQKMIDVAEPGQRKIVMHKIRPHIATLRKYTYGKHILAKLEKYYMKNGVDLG

Test [2] deals with T2, PUM1 PUF domain R2-KKG N899K + Y900K + Q903G (Homo sapiens) (UniProt Q14671).
T2 sequence: T1 sequence with G72K, W73K, W76G

The target in test [3] is T3, PUM1 PUF domain R2-KLS N899K + Y900L + Q903S (Homo sapiens) (UniProt Q14671).
T3 sequence: T1 sequence with G72K, W73L, W76S

Test [4] concerns the target T4, PUM1 PUF domain R2-LFA N899L + Y900F + Q903A (Homo sapiens) (UniProt Q14671).
T4 sequence: T1 sequence with G72L, W73F, W76A

The target in test [5] is T5, PUM1 PUF domain R2-LFG N899L + Y900F + Q903G (Homo sapiens) (UniProt Q14671).
T5 sequence: T1 sequence with G72L, W73F, W76G

Test [6] deals with T6, PUM1 PUF domain R2-LFS N899L + Y900F + Q903S (Homo sapiens) (UniProt Q14671).
T6 sequence: T1 sequence with G72L, W73F, W76S

The target in test [7] is T7, PUM1 PUF domain R2-LFV N899L + Y900F + Q903V (Homo sapiens) (UniProt Q14671).
T7 sequence: T1 sequence with G72L, W73F, W76V

Test [8] addresses T8, PUM1 PUF domain R2-LWF N899L + Y900W + Q903F (Homo sapiens) (UniProt Q14671).
T8 sequence: T1 sequence with G72L, W76F

For test [9], the target named is T9, PUM1 PUF domain R2-LWR N899L + Y900W + Q903R (Homo sapiens) (UniProt Q14671).
T9 sequence: T1 sequence with G72L, W76R

Test [10] addresses T10, PUM1 PUF domain R2-LWV N899L + Y900W + Q903V (Homo sapiens) (UniProt Q14671).
T10 sequence: T1 sequence with G72L, W76V

Test [11] concerns the target T11, PUM1 PUF domain R2-LWY N899L + Y900W + Q903Y (Homo sapiens) (UniProt Q14671).
T11 sequence: T1 sequence with G72L, W76Y

In test [12] the target is T12, PUM1 PUF domain R2-RKA N899R + Y900K + Q903A (Homo sapiens) (UniProt Q14671).
T12 sequence: T1 sequence with G72R, W73K, W76A

Test [13] deals with T13, PUM1 PUF domain R2-RKG N899R + Y900K + Q903G (Homo sapiens) (UniProt Q14671).
T13 sequence: T1 sequence with G72R, W73K, W76G

Test [14] addresses T14, PUM1 PUF domain R2-RRH N899R + Y900R + Q903H (Homo sapiens) (UniProt Q14671).
T14 sequence: T1 sequence with G72R, W73R, W76H

The target of test [15] is T15, PUM1 PUF domain R2-RRM N899R + Y900R + Q903M (Homo sapiens) (UniProt Q14671).
T15 sequence: T1 sequence with G72R, W73R, W76M

Test [16] deals with T16, PUM1 PUF domain R2-RRS N899R + Y900R + Q903S (Homo sapiens) (UniProt Q14671).
T16 sequence: T1 sequence with G72R, W73R, W76S

Test [17] has as its target T17, PUM1 PUF domain R2-RTQ N899R + Y900T (Homo sapiens) (UniProt Q14671).
T17 sequence: T1 sequence with G72R, W73T, W76Q

The target in test [18] is T18, PUM1 PUF domain R2-SWP N899S + Y900W + Q903P (Homo sapiens) (UniProt Q14671).
T18 sequence: T1 sequence with G72S, W76P

Test [19] addresses T19, PUM1 PUF domain R1-QFR R2-VFQ R6-SWD S863Q + R864F + Q867R + N899V + Y900F + N1043S + Y1044W + Q1047D (Homo sapiens) (UniProt Q14671).
T19 sequence: T1 sequence with S36Q, R37F, Q40R, G72V, W73F, W76Q, N216S, Y217W, Q220D

Test [20] concerns the target T20, PUM1 PUF domain R1-RWD S863R + R864W + Q867D (UniProt Q14671).
T20 sequence: T1 sequence with S36R, R37W, Q40D, G72N, W73Y, W76Q

Substitutions are numbered along the chain they refer to. This is one part of the list. For some assays here: At the low end of the ranking, values are background and their order means little.

As for “GGCUAGAACUAGUGGAUCCCCCGGCGCCCGGCGGCUCGAGCCCGGGUAAGUGUAAAUAGUCUGCAUGCCGCCGGGCGCCAUGCCUGCAGGUCGACUCUAGAAAACAUG”, the binding signal (log2 enrichment (interaction score)) in test [1] is -1.13; in [2] it was -3.74; in [3], -2.46; in test [4], -0.76; in test [5] it was -3.04; in test [6] it was -1.33. Besides, the binding signal (log2 enrichment (interaction score)) in test [7] was -0.86; in [8], -2.73; in test [9], -0.83; in [10], -3.88; in test [11] it was -4.18; in [12] it was -6.26. The binding signal (log2 enrichment (interaction score)) in test [13] was -2.41; in test [14], -4.29; in test [15], -0.81; in test [16], -3.6; in test [17] it was -0.18; in test [18] it was -4.34.

As to “GGCUAGAACUAGUGGAUCCCCCGGCGCCCGGCGGCUCGAGCCCGGGUAAGUUCAUAUAGUCUGCAUGCCGCCGGGCGCCAUGCCUGCAGGUCGACUCUAGAAAACAUG”, the binding signal (log2 enrichment (interaction score)) in test [19] is 3.91.

“GGCUAGAACUAGUGGAUCCCCCGGCGCCCGGCGGCUCGAGCCCGGGUAAGUGUAAAUUGUCUGCAUGCCGCCGGGCGCCAUGCCUGCAGGUCGACUCUAGAAAACAUG”: the binding signal (log2 enrichment (interaction score)) in test [20] was -2.62.
